At least one peptide structure holds a part that was inferred or is arguable (an end, a ring closure or a residue). Bridge positions count the residues as written; N and C are the ends. Peptide text beside a SMILES is read from it.
Tested on: chicken rectum
Details: relaxant activity of equimolar amount of peptide, activity of α-hANP = 100; averages of six repeats
Procedure: Relaxant activity in chicken rectum was measured in accordance with the method of […] and Currie ([…]. and Matsuo, H., Biochem. Biophys. Res. Commun., 118, 131-139, 1984; Currie, […]., Cole, […]. and Needleman, P. Science, 221, 71-73, 1983). The values are averages of six repeats. […] Although fCNP lacked the tail sequence at the C-terminal which had been considered to be important for analog peptides in displaying biological activities such as diuretic action (Watanabe, T. X., Noda, Y., Chino […]. and Imai, M. Eur. J. […] Relative activity is defined as the activity of equimolar amount of peptides when the activity of α-hANP is 100.

CC[C@H](C)[C@@H]1NC(=O)[C@H](CCCNC(=N)N)NC(=O)[C@H](CC(=O)O)NC(=O)[C@H]([C@@H](C)CC)NC(=O)[C@H](CCCNC(=N)N)NC(=O)[C@H](CO)NC(=O)CNC(=O)[C@H](Cc2ccccc2)NC(=O)[C@@H](NC(=O)[C@H](CC(=O)O)NC(=O)[C@H](CO)NC(=O)[C@@H](N)CO)CSSC[C@@H](C(=O)NCC(=O)N[C@@H](CCCNC(=N)N)C(=O)N[C@@H](CCCNC(=N)N)C(=O)N[C@@H](Cc2ccccc2)C(=O)O)NC(=O)CNC(=O)[C@H](CCSC)NC(=O)CNC(=O)[C@H](CO)NC(=O)[C@H](CCC(N)=O)NC(=O)[C@H](C)NC(=O)CNC1=O [fANP-24, reference compound] (H-SSDCFGSRIDRIGAQSGMGCGRRF-OH; disulfide 4-20)
relative activity: 3.7

Source: patent US5336759A, “Biologically active peptide derived from frog (frog CNP)” (priority 1990, dated 1994)
